Laboratory results as given in PMC8394291, “Identification of TSPAN4 as Novel Histamine H4 Receptor Interactor” (Biomolecules, 2021).
No constants are given. Whether binding was seen depends on the method and setting. Binding seen in cells or lysates may run through a third protein. Some results given as binding are weak or reduced against the parent protein; the word gives no strength.

Chains of the proteins cited; added tags and fusions are not shown. Lines headed by an entry give the natural chain unless they say otherwise; changes in a name come on top.
UniProt Q9H3N8, whole entry: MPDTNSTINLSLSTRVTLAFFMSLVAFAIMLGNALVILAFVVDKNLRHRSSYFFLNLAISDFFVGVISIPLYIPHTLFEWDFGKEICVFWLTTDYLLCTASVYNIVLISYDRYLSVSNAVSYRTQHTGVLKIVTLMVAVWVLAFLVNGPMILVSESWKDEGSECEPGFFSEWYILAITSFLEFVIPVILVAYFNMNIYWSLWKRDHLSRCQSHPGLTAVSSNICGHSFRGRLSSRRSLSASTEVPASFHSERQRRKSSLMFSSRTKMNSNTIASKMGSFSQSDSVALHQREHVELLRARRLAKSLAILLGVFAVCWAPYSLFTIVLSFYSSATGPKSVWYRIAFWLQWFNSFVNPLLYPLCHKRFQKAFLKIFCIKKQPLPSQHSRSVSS

Key:
[1] = target: H4R-V1 (human) (UniProt Q9H3N8); assay: split reporter; BiFC of mVenus fragments V1 and V2 in co-transfected HEK293T cells; microscopy after PFA fixation and plate reader; vehicle or 10 µM histamine for 30 min
[2] = target: HA-H4R (human) (UniProt Q9H3N8); assay: condition: only cells expressing either HA-H4R or mVenus-TSPAN4 mixed (1:1) before solubilization; co-IP; control: HEK293T cells expressing either HA-H4R or mVenus-TSPAN4 mixed 1:1 before solubilisation; anti-HA agarose IP; blot with anti-Venus
[3] = target: HA-H4R (human) (UniProt Q9H3N8); assay: co-IP; HEK293T cells co-expressing HA-H4R and mVenus-TSPAN4, solubilised in RIPA buffer; anti-HA agarose IP overnight at 4 °C; blot with anti-Venus; vehicle or 10 µM histamine

| Binder | binding [1] | binding [2] | binding [3] |
| --- | --- | --- | --- |
| V2-TSPAN4 (protein, UniProt O14817 2-238) ARACLQAVKYLMFAFNLLFWLGGCGVLGVGIWLAATQGSFATLSSSFPSLSAANLLIITGAFVMAIGFVGCLGAIKENKCLLLTFFLLLLLVFLLEATIAILFFAYTDKIDRYAQQDLKKGLHLYGTQGNVGLTNAWSIIQTDFRCCGVSNYTDWFEVYNATRVPDSCCLEFSESCGLHAPGTWWKAPCYETVKVWLQENLLAVGIFGLCTALVQILGLTFAMTMYCQVVKADTYCA | binds |  |  |
| mVenus-TSPAN4 (natural protein, human, UniProt O14817 2-238, looked up, tetraspanin 4 (TSPAN4), human; start codon replaced by SpeI-NotI sites coding for a TSAAA linker, mVenus at the intracellular N-terminus; also called mVenus-TSPAN4/pcDNA3.1; source: HEK293T, transiently transfected, in living cells (BRET) and in lysate (co-IP); not shown: mVenus (with TSAAA linker), N-terminal, kept) ARACLQAVKYLMFAFNLLFWLGGCGVLGVGIWLAATQGSFATLSSSFPSLSAANLLIITGAFVMAIGFVGCLGAIKENKCLLLTFFLLLLLVFLLEATIAILFFAYTDKIDRYAQQDLKKGLHLYGTQGNVGLTNAWSIIQTDFRCCGVSNYTDWFEVYNATRVPDSCCLEFSESCGLHAPGTWWKAPCYETVKVWLQENLLAVGIFGLCTALVQILGLTFAMTMYCQVVKADTYCA |  | no binding | binds |
